Experimental data: US10342767B2, “Therapy for kinase-dependent malignancies” (CHILDREN'S HOSPITAL MEDICAL CENTER, priority 2011, dated 2019)
At least one structure is not confirmed: it was looked up by name or label, or the drawing left a doubt.

Legend:
NCI-H1703 xenografts = assay: NCI-H1703 mouse xenografts; format: in vivo; details: treatment started two weeks after xenotransplantation
NCI-H1703 cells = assay: NCI-H1703 dose response / cell survival (WST assay); format: cell-based; details: EGF+FGF

Structure (SMILES): CCN(CC)CCNC(=O)c1c(C)[nH]c(/C=C2\C(=O)Nc3ccc(F)cc32)c1C [sunitinib]
- xenograft response (NCI-H1703 xenografts): initial response but three mice showed tumor regrowth
- response to sunitinib in the presence of growth factors (NCI-H1703 cells): resistance
